Here are results for 40 sequences from paper PMC7862700.

The other results are listed elsewhere or left out. Construct or isoform of the protein are uncertain.

This test concerns the target T1, ETS1 (UniProt P14921).
T1 sequence: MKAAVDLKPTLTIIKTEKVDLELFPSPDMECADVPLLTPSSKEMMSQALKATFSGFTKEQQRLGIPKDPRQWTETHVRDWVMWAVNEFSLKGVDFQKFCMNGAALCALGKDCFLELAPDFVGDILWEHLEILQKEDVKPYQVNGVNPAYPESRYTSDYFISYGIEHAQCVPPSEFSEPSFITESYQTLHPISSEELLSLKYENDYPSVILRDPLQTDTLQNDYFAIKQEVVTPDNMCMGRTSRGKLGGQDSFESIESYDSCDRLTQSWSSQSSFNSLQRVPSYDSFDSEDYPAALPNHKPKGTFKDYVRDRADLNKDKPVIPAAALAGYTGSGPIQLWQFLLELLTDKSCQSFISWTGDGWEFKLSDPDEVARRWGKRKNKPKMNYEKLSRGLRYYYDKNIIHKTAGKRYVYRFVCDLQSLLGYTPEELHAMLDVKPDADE
Description: DAPPL (digital affinity profiling via proximity ligation, sequencing). As to conditions: 10 mM Tris-HCl pH 7.5, 50 mM NaCl, 1 mM DTT, 4% glycerol, room temperature, 30 min; GST-TFs on glutathione beads, 16-mer random dsDNA library, 0.1% …; high values mean tight binding; double strand, one strand shown; scale: fold enrichment (6-mer frequency, TF over GST control).
The sequence AAAACC came in with a binding signal of 1.15. Then ACACTC, with 1.12; and GACATT, with 1.15; and ACATAG, with 1.06. For TGCCCT the value was 1.18.

For TTTCGT, the binding signal came to 1.35. For ATGGCG the value was 1.04; for TAAATC, 1.24; for GTAATG, 1.09. For TACCTA the value was 1.22; for TTCCAC, 1.39.

TGTCCC showed a binding signal of 1.4. Then TCGTCC, with 1.08. GTGACC: the binding signal was found to be 1.3. Then GATCCC, with 1.11. For CTGGTC the value was 1.29; for TAGTAT, 1.42. Then AACAAC, with 1.34; and GAACTT, with 1.63. In turn, CTCACG had a binding signal of 1.35. Then GGATGT, with 1.52; and GTAACC, with 1.06. Then CTTGCG, with 1.45; and TAGAAG, with 1.14. Then TACCAT, with 1.2. CGGAAA displayed a binding signal of 1.92. The sequence GTAATT displayed a binding signal of 1.24. Sequence ACGCGG returned a binding signal of 1.02. Then TATGCC, with 1.15; and TTTGTA, with 1.61; and CTTAAT, with 1.35. For AGCTCT the value was 1.15; for TTATTC, 1.4; for TCTTCC, 2.75. For TTGCAA the value was 1.24; for ATAAGT, 1.03; for AATTAC, 1.23. As for CGACAA, the binding signal was found to be 1.22.

Consider CCACCC, for which the binding signal was 1.33. TCAACA yielded a binding signal of 1.1.
